Here are results for 1 molecule from ChEMBL document CHEMBL2176989, “Design, synthesis, and pharmacological evaluation of piperidin-4-yl amino aryl sulfonamides: novel, potent, selective, orally active, and brain penetrant 5-HT₆ receptor antagonists” (J Med Chem, 2012).

Chains of the proteins cited; added tags and fusions are not shown.
UniProt P10635, whole entry: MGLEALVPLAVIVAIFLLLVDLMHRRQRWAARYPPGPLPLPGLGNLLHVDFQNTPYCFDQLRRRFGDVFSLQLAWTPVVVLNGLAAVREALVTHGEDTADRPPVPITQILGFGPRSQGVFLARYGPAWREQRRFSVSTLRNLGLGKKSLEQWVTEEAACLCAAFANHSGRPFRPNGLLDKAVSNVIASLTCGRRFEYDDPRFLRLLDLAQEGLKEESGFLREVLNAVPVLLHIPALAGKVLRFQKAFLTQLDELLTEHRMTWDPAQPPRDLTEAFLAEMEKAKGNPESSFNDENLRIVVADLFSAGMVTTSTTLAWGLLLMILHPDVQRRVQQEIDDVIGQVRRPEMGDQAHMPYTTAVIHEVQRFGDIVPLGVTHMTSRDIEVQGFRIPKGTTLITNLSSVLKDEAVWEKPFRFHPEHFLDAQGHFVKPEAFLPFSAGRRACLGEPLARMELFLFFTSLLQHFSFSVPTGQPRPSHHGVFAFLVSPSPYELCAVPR

This assay deals with Cytochrome P450 2D6 (Homo sapiens, UniProt P10635). Description: Inhibition of CYP2D6 in human liver microsomes using dextromethorphan as substrate after 10 mins by LC-MS/MS analysis in presence of NADPH. (In general: Microsomes from liver hold many membrane-bound enzymes, among them those of drug oxidation.)

SMILES strings stand for the structures.

Take `COc1ccc(S(=O)(=O)N2CCOc3ccc(Cl)cc32)cc1NC1CCN(C)CC1`: the IC50 was found to be 27 µM.

The term IC50 denotes the concentration that inhibits the measured activity by half.
